Results are given in words; binding and its absence hold for the method and conditions named. Some binding calls cover weakened binding; strength is not graded here. Sequences can lack the tags named with a protein.
Columns and labels:
BMP6 [1] = biological target: BMP6 (UniProt P22004); test: SPR (Biacore)
Activin B [2] = biological target: T1, Activin B (UniProt P09529); test: SPR (Biacore)
T1 sequence (looked up): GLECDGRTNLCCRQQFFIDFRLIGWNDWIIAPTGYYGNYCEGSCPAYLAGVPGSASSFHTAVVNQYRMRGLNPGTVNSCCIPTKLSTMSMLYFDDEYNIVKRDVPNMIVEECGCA

Sequences of proteins named here, by UniProt entry; tags and fusion partners are left off. Residues count along the entry.
UniProt P22004, residues 382-513: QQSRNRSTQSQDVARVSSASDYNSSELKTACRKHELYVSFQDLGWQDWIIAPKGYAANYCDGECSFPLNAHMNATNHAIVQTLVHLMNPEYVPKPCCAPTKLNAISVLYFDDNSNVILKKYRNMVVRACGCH
UniProt O14793, residues 267-375: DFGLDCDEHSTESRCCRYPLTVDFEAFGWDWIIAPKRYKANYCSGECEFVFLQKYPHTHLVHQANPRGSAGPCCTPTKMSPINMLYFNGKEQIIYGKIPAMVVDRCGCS
UniProt O95390, residues 299-407: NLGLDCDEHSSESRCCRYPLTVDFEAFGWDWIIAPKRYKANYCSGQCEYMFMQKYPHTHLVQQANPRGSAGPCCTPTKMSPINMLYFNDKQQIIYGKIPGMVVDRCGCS
UniProt P22003, residues 317-454: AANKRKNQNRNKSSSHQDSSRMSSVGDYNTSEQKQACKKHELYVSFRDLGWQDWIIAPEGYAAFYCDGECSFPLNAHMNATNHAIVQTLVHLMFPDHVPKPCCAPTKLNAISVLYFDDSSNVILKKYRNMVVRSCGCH

BMP9 [3] = biological target: T2, BMP9 (UniProt Q9UK05); test: SPR (Biacore)
T2 sequence (looked up): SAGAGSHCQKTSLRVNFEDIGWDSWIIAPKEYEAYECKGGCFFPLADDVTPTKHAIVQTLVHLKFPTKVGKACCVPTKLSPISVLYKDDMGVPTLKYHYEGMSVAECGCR

GDF8 [4] = biological target: GDF8 (UniProt O14793); test: SPR (Biacore)
GDF11 [5] = biological target: GDF11 (UniProt O95390); test: SPR (Biacore)
BMP10 [6] = biological target: T3, BMP10 (UniProt O95393); test: SPR (Biacore)
T3 sequence (looked up): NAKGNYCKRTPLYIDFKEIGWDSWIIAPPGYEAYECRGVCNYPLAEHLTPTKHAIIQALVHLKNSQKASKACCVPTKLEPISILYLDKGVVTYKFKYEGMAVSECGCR

BMP5 [7] = biological target: BMP5 (UniProt P22003); test: SPR (Biacore)
GDF3 [8] = biological target: T4, GDF3 (UniProt Q9NR23); test: SPR (Biacore)
T4 sequence (looked up): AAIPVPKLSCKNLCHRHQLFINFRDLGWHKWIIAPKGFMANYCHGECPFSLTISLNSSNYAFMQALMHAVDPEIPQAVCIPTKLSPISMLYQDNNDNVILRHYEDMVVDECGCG

GDF7 = biological target: T5, GDF7 (UniProt Q7Z4P5); test: SPR (Biacore), anti-Fc capture
T5 sequence (looked up): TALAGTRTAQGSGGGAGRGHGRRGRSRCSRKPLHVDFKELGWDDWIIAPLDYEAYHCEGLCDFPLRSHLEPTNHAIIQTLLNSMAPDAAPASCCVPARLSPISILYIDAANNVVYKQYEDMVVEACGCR

GDF5 = biological target: T6, GDF5 (UniProt P43026); test: SPR (Biacore), anti-Fc capture
T6 sequence (looked up): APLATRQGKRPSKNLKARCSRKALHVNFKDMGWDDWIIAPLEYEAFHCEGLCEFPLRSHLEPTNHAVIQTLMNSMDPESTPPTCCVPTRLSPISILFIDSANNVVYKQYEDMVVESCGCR

BMP6 [9] = biological target: BMP6 (UniProt P22004); test: SPR (Biacore), figure legend
Activin B [10] = biological target: T1, Activin B; test: SPR (Biacore), figure legend
BMP9 [11] = biological target: T2, BMP9; test: SPR (Biacore), figure legend
GDF8 [12] = biological target: GDF8 (UniProt O14793); test: SPR (Biacore), figure legend
GDF11 [13] = biological target: GDF11 (UniProt O95390); test: SPR (Biacore), figure legend
BMP10 [14] = biological target: T3, BMP10; test: SPR (Biacore), figure legend
BMP5 [15] = biological target: BMP5 (UniProt P22003); test: SPR (Biacore), figure legend
GDF3 [16] = biological target: T4, GDF3; test: SPR (Biacore), figure legend
BMP6 [17] = biological target: BMP6 (UniProt P22004); test: SPR (Biacore), anti-Fc capture
GDF6 = biological target: T7, GDF6 (UniProt Q6KF10); test: SPR (Biacore), anti-Fc capture
T7 sequence (looked up): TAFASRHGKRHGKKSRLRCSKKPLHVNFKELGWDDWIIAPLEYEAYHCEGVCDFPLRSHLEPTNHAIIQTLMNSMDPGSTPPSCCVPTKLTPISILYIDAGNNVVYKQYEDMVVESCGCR

Measured: binding

B1: ActRIIB-Fc homodimer (Fc fusion, human, UniProt Q13705 19-137, looked up, not shown: a dimerising Fc or GST)
chain: SGRGEAETRECIYYNANWELERTNQSGLERCEGEQDKRLHCYASWRNSSGTIELVKKGCWLDDFNCYDRQECVATEENPQVYFCCCEGNFCNERFTHLPEAGGPEVTYEPPPTAPTLLT
not listed: BMP6 [17] | GDF6
binds: all other assays above

B2: BMPRII-Fc homodimer (Fc fusion, human, UniProt Q13873 27-150, looked up, not shown: a dimerising Fc or GST)
chain: SQNQERLCAFKDPYQQDLGIGESRISHENGTILCSKGSTCYGLWEKSKGDINLVKQGCWSHIGDPQECHYEECVVTTTPPSIQNGTYRFCCCSTDLCNVNFTENFPPPDTTPLSPPHSFNRDET
binds: BMP6 [17] | GDF6

Reference: patent US20210147508A1
